Library screen at single concentrations

Amino acid sequences for entries named in this document (tags omitted). Residues count along the entry.
UniProt Q8IDJ8, 1-583: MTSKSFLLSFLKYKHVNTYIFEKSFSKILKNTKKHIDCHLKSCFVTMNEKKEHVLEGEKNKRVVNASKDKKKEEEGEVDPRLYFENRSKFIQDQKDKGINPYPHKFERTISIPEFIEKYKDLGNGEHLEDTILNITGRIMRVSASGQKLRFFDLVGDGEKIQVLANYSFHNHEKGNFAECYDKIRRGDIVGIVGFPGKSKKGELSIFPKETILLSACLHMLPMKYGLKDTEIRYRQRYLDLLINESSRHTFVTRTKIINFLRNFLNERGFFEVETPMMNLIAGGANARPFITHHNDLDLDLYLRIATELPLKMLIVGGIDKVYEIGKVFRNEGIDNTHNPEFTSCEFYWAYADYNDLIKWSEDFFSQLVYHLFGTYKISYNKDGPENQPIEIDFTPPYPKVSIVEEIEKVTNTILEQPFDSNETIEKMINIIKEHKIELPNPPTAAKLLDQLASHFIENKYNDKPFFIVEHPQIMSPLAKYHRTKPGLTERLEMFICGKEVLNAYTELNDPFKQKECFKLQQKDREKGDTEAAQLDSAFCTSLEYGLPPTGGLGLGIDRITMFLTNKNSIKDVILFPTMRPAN
UniProt I6X8D2, whole entry: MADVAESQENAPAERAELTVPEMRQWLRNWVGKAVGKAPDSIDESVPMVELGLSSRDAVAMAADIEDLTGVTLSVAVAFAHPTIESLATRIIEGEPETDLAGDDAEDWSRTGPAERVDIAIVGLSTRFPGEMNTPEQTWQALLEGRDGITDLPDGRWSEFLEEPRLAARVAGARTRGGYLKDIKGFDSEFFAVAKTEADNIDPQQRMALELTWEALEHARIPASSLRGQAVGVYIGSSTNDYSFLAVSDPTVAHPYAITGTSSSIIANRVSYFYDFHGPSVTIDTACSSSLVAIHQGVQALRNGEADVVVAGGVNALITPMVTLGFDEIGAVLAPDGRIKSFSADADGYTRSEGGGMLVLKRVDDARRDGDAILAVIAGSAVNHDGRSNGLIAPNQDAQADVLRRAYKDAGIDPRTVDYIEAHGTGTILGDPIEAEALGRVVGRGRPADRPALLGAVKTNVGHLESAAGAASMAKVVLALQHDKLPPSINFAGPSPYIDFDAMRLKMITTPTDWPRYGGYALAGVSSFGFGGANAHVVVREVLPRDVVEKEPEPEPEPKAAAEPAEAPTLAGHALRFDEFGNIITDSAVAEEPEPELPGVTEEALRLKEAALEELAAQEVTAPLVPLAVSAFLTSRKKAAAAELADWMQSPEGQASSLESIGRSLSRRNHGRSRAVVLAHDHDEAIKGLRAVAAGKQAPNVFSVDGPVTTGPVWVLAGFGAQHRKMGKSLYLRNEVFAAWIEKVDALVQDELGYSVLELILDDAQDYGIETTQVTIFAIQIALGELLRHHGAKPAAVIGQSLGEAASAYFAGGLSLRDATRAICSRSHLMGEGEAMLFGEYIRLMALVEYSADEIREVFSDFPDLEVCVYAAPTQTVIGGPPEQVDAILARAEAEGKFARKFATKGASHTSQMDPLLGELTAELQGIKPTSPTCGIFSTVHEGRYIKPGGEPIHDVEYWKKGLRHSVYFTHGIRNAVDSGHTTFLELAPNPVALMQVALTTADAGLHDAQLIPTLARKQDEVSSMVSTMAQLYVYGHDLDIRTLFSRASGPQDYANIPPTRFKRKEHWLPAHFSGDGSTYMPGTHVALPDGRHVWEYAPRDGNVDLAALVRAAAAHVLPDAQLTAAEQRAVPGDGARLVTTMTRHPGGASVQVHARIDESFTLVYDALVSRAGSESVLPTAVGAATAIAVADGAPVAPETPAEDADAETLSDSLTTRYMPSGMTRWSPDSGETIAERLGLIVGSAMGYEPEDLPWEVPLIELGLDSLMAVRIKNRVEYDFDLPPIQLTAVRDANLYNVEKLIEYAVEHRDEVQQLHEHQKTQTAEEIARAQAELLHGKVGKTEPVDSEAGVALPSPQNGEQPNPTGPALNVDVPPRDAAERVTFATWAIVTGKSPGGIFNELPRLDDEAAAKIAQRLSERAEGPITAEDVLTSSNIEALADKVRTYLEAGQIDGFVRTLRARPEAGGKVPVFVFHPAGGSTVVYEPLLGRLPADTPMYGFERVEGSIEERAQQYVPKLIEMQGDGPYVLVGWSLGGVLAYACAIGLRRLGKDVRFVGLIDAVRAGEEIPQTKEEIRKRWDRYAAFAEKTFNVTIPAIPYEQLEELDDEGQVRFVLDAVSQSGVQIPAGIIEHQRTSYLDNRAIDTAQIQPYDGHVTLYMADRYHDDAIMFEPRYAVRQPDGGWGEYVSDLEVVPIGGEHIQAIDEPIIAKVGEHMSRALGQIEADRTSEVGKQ
UniProt P9WFT3, whole entry: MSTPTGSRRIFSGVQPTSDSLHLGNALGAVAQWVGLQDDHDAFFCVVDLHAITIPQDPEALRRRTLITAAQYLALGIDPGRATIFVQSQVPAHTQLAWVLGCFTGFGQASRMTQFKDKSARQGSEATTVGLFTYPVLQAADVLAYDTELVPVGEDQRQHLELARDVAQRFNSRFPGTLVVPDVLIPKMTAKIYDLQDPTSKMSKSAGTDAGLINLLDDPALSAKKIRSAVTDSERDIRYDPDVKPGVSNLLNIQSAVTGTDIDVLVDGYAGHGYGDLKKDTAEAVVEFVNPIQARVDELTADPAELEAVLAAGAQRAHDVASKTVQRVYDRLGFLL
UniProt Q4DA54, 1-478: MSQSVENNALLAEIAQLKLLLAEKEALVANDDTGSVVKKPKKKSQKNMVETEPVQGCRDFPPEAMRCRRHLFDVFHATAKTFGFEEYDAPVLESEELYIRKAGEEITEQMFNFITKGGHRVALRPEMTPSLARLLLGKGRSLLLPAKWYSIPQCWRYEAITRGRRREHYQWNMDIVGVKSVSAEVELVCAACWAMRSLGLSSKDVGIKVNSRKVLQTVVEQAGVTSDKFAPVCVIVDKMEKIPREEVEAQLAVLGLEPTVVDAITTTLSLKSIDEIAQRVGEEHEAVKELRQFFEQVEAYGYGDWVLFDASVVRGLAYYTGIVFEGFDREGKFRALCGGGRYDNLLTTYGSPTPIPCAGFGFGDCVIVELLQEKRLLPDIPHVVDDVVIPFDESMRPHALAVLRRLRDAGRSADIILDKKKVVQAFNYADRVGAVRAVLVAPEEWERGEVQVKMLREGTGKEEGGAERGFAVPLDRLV

The values are deposited in ChEMBL (CHEMBL3988442, “University of Dundee, Small-Polar-MMV Screening Library” (2021)).

PfKRS1: 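Lysine-tRNA ligase, Plasmodium falciparum 3D7 (UniProt Q8IDJ8). Enzyme assay of the cytosolic lysyl-tRNA synthetase in 384-well plates, read by luminescence. Compounds at 30 µM. Higher reads as stronger inhibition, judged from the few compounds that gave an IC50. Of about 69,000 compounds tested this way, about 49 (0.071%) reached 50% or more in at least one test.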
Pks13 thioesterase: 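Enzyme assay of the thioesterase domain of polyketide synthase 13; the read-out is not stated. Target: Polyketide synthase Pks13, Mycobacterium tuberculosis (UniProt I6X8D2). Compounds at 30 µM. The record gives no direction; the compounds picked for IC50 retests had high values, so higher reads as stronger inhibition. Size under these conditions: about 67,000 compounds, about 300 of them at 50% or above in at least one test.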
MtTrpRS: 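Tryptophan-tRNA ligase, Mycobacterium tuberculosis (UniProt P9WFT3). Enzyme assay of tryptophanyl-tRNA synthetase; the read-out is not stated. Tested at 10 µM. Higher most likely means stronger inhibition; the record gives no direction and few retests gave an IC50. About 65,000 compounds were tested under these conditions; 0.098% (about 64) showed 50% or more at least once.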
TcHisRS: 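Enzyme assay of histidyl-tRNA synthetase; the read-out is not stated. Target: Histidine-tRNA ligase, Trypanosoma cruzi CL Brener (UniProt Q4DA54). Concentration: 30 µM. Direction is inferred from retests: higher values go with stronger inhibition. Of about 69,000 compounds tested this way, about 31 (0.045%) reached 50% or more in at least one test.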

Values are the deposited “Percent Effect”, in %. How 0% and 100% were set is not recorded. Most values in the screen are low, and negative values occur. Compounds were drawn at random from those tested, without regard to their results. A dash means the value is not listed here; it may have been measured.

SMILES,PfKRS1,Pks13 thioesterase,MtTrpRS,TcHisRS
CC(C)C(NC(=O)Cn1ccc(=O)n(C)c1=O)c1ccc(F)cc1 (centres undefined),8.537%,5.848%,-2.715%,5.703%
CCN(C)S(=O)(=O)NCC(O)c1c(Cl)cccc1Cl (centres undefined),-2.15%,-22.53%,-3.479%,1.554%
CN(Cc1cccnc1)[C@@H]1CN(C(=O)c2ccoc2)[C@@H]2CCCO[C@H]12,-0.9671%,-19.34%,-4.167%,10.48%
CN1CCN(C(=O)c2cc3c(s2)CCN3C(=O)C2CC2)CC1,-3.012%,-23.13%,0.3607%,6.897%
COc1cccc(OCc2cc(C(=O)NC[C@@H]3CCCN3)n[nH]2)c1,-0.9253%,-23.15%,0.6463%,-3.175%
CN(C)CC(=O)N1CC[C@H]2OCC[C@@]2(COCC2CC2)C1,3.144%,-20.44%,1.647%,2.454%
O=C(c1cc(-n2cnnn2)ccc1Cl)N1CCC2(CC1)OCCO2,4.655%,-16.31%,-3.072%,3.261%
CCOCc1ccc(CNC(=O)N2CCC(C(N)=O)C2)cc1 (centres undefined),0.934%,-5.643%,-2.521%,4%
CCOc1ccc(Cl)c(C(=O)NC(C(N)=O)c2ccccc2)n1 (centres undefined),7.018%,-22.03%,0.97%,6.897%
CN(C)c1ncc2c(n1)C1(CCN(Cc3ccccc3)C1)COC2 (centres undefined),-4.288%,-6.739%,2.385%,0.8264%
COC(=O)c1cccc(S(=O)(=O)Nc2ncc(C)s2)c1,2.462%,-44.96%,-0.7064%,8.28%
CCCc1nccn1CCn1cnc2ccsc2c1=O,2.491%,-13.78%,-2.386%,6.897%
O=c1nc(SCc2cccnc2)c2c(n1CCO)CCC2,3.141%,-13.04%,-2.637%,2.479%
Cc1nc(CCNCc2c(C)nn(C)c2N2CCOCC2)cs1,-0.6361%,-14.04%,-8.475%,3.55%
CCNC(=O)[C@@H]1C[C@H](N)CN1C(=O)CCc1ccc(C)c(C)c1,-1.78%,-3.137%,-7.68%,6.704%
CN1CCCC1(CCCc1cccnc1)C(=O)NCc1nccn1C (centres undefined),-1.619%,3.809%,-1.903%,8.046%
O=C(c1ccncc1)N1CCC2(COc3ncccc3S(=O)(=O)N2)C1 (centres undefined),0.9804%,-7.806%,6.309%,4.142%
COCCC(=O)N1CCCC(c2noc3nc(C)cc(C(F)(F)F)c23)C1 (centres undefined),0.2206%,-2.435%,-,6.742%
O=C(CCN1CCOC(C(F)(F)F)C1)NCc1ccc(Cl)cc1 (centres undefined),6.16%,-35.94%,-3.498%,4.865%
O=C1COC2(CCN(CC3CC3)CC2)CN1c1ccccc1,2.001%,-34.65%,0.7401%,3.306%
Cc1nc(-c2cccnc2)ncc1C(=O)N1CCCCC(N)C1 (centres undefined),4.376%,-16.42%,5.294%,6.024%
COCCN1CC2(CCCN(C(=O)NCCc3cccs3)C2)CCC1=O (centres undefined),-0.5765%,6.28%,-2.832%,8.743%
CCCc1nnc(N2CCC3(CC2)CN(C)C(=O)O3)o1,3.591%,2.417%,-7.454%,5.6%
O=C(NC1CC1)c1ccnc(N2CCOC(c3ccc(Cl)c(Cl)c3)C2)c1 (centres undefined),-0.9565%,1.473%,0.7276%,-3.352%
CCOc1cc2c(cc1CNC(Cc1cccs1)c1nccs1)OCO2 (centres undefined),1.224%,18.44%,-8.155%,9.848%
O=C(NCC1CC2(CO1)CN(c1nncs1)C2)C1CCC1 (centres undefined),1.969%,-10.18%,-,5.525%
CCc1ccc(CN2CC[C@@H]3NC(=O)CC[C@@H]32)o1,-1.357%,-39.58%,5.523%,1.942%
Cn1c2c(ccc1=O)CC(NC(=O)c1ccsc1)CC2 (centres undefined),4.491%,2.536%,-,1.676%
CCC(=O)N1CCC(n2cc(C(C)(C)O)nn2)CC1,0.9353%,4.176%,1.158%,-0.9662%
CCOCC(=O)Nc1cccc(Oc2ccccn2)c1,3.545%,-1.47%,-1.955%,6.667%
CCCc1cncnc1N1CCCC2(CCC(=O)N(C3CCCC3)C2)C1 (centres undefined),-0.787%,-23.27%,-0.3661%,-0.4292%
COCC1CCCN(c2cncc(OCc3ccccc3)n2)C1 (centres undefined),3.838%,25.15%,5.753%,21.11%
O=C(CSc1ccccn1)N1CCN(CCO)[C@@H]2CS(=O)(=O)C[C@@H]21,-1.158%,0.4226%,-3.211%,8.235%
Cn1cccc1C(=O)N1CCc2ccc(=O)n(C)c2CC1,-1.296%,-17.71%,-8.984%,7.477%
Cc1ccc(CN2CCCC3(CCN(Cc4ccc(C)o4)C3)C2)o1 (centres undefined),-0.7349%,-7.458%,3.26%,9.184%
Cc1cccc(CN2CCCC(O)(CNCc3cccc(F)c3)C2=O)c1 (centres undefined),4.116%,-26.52%,-5.936%,3.665%
CCN(CCc1nccs1)C(=O)c1ccco1,2.063%,-8.24%,-0.6606%,2.564%
CC(C)n1cc(C(=O)NCCCc2csc(N)n2)cn1,2.401%,-27.86%,2.182%,7.097%
Cn1c(=O)n(C)c2cc(C3SCC(=O)Nc4ccsc43)ccc21 (centres undefined),-0.2915%,-131.3%,13.47%,-2.732%
O=C(NCCNc1ncccn1)N1CCCC(C(F)(F)F)C1 (centres undefined),10.2%,-4.526%,-0.387%,0.8333%
CCc1ccc(CN(C)Cc2nc(-c3cnccn3)no2)nc1,3.266%,-11.03%,-4.93%,5.759%
CNC(=O)CCc1cc(C2CCCN2C(=O)CO)nc(C)n1 (centres undefined),1.655%,-6.456%,-0.7542%,3.143%
COCC(=O)NC1CC2(CCN(CCF)CC2)Oc2ccccc21 (centres undefined),4.894%,-3.953%,2.519%,1.504%

The last 3 entries again:

* CCc1ccc(CN(C)Cc2nc(-c3cnccn3)no2)nc1 : PfKRS1: 3.266%; Pks13 thioesterase: -11.03%; MtTrpRS: -4.93%; TcHisRS: 5.759%
* CNC(=O)CCc1cc(C2CCCN2C(=O)CO)nc(C)n1 (centres undefined) : PfKRS1: 1.655%; Pks13 thioesterase: -6.456%; MtTrpRS: -0.7542%; TcHisRS: 3.143%
* COCC(=O)NC1CC2(CCN(CCF)CC2)Oc2ccccc21 (centres undefined) : PfKRS1: 4.894%; Pks13 thioesterase: -3.953%; MtTrpRS: 2.519%; TcHisRS: 1.504%